# System: Hut78 cells
# Experiment: 72 h IC50 by Alamar blue assay in Hut78
# Assay type: cell-based
# Settings: read-out: 1×IC50 value in Hut78 cells
# Protocol: Experiments were carried out in 96-well plates and the cell lines seeded at a density of 2500/well for H1299, 2500/well or 3000/well for H460, 5000/well for HL-60 cells, and 8,000 cells/well for Hut78, MV4-11 and PL-21 cells. In the solid tumour cell lines (H460 and H1299) 24 h treatment and 72 h treatment IC50 values were determined for each compound using the Alamar blue assay, whereas only 72 h IC50 values were obtained in the suspension cell lines (Hut78, MV4-11, HL60 and PL21). Each compound was then tested in combination with CNDAC using three different treatment regimes: concomitant, CNDAC pre-treatment followed by HDAC inhibitor/topoisomerase inhibitor and CNDAC treatment after pre-treatment with HDAC inhibitor/topoisomerase inhibitor. […]
# After drug treatment, the cell number in each well was then estimated by incubating the cells for 1 h in medium containing 10% alamar blue (Roche, Lewes, East Sussex, U.K.) and reading the absorbance at 544-595 nm. Drug interactions were analysed using the commercial software package Calcusyn, which is based on the median effect model of Chou and Talalay (Chou, T. C. & Talalay, P. (1984) Adv. Enzyme Regul. 22, 27-55. Quantitative analysis of dose-effect relationships: the combined effects of multiple drugs or enzyme inhibitors). […]
smiles,measurement,value
"O=C(CCCCCCC(=O)Nc1ccccc1)NO [SAHA, suberoylanilide hydramic acid, reference compound]",IC50,460 nM

# Source: patent publication US8349792B2, “Combination comprising CNDAC (2′-cyano-2′-deoxy-N4-palmitoyl-1-beta-D-arabinofuranosyl-cytosine) and a cytotoxic agent” (priority 2006, dated 2013)
